Source: patent US20250041245A1, “ENDOXIFEN FOR TREATMENT OF CANCERS” (Atossa Therapeutics, Inc., priority 2021, published 2025)
At least one structure is not confirmed: it was looked up by name or label, or the drawing left a doubt.

How the values were obtained:
Assay type in all cases: cell-based, human
[1] = tested on: patient-derived tumor organoids (PDTOs), rectal cancer; experiment: Endoxifen screen in PDTOs: rectal cancer; conditions: Patient 19
Experimental: (§1) This example describes screening endoxifen in patient-derived tumor organoids. Endoxifen was tested as a single agent on tumor organoids derived from patients diagnosed with various cancer types using a personalized cancer treatment screening assay (PARIS© Test, SEngine Precision Medicine). The screen utilized patient-derived tumor organoids (PDTOs) along with high-throughput drug screening and machine learning-guided data analysis to quantify the efficacy of endoxifen against samples derived from individual patients diagnosed with various cancer types. […]
(§2) Fresh patient biopsy samples received following surgery were cleaned and purified. […] The PDTOs were treated with increasing concentrations of endoxifen ranging from about 30 nM to about 10 μM, and the drug response was measured using a luminescence readout. A lower luminescence was indicative of a stronger drug response.
(§3) The results were analyzed using a “SEngine Precision Medicine” (SPM) scoring system to assess the sensitivity and personalization of each tumor organoid to endoxifen. […]
(§4) This example describes testing endoxifen efficacy against 17 distinct cancer types in patient-derived tumor organoids (PDTOs). […] For each PDTO sample, the drug response was measured using a luminescent readout over a range of endoxifen concentrations. […] The area under the curve was calculated from the normalized curve. […]

[2] = tested on: patient-derived tumor organoids (PDTOs), esophageal adenocarcinoma; experiment: Endoxifen screen in PDTOs: esophageal adenocarcinoma; conditions: Patient 14
Experimental: as §1, §2, §3, §4

[3] = tested on: patient-derived tumor organoids (PDTOs), cervical carcinoma; experiment: Endoxifen screen in PDTOs: cervical carcinoma; conditions: Patient 10
Experimental: as §1, §2, §3, §4

CC/C(=C(\c1ccc(O)cc1)c1ccc(OCCNC)cc1)c1ccccc1 [Endoxifen, 4-hydroxy-N-desmethyltamoxifen]
Personalization Category [1]: low
Sensitivity Category [1]: low
Personalization Category [2]: good
Sensitivity Category [2]: low
Personalization Category [3]: good
Sensitivity Category [3]: low
